Laboratory results published in PubChem BioAssay AID2685 (National Center for Advancing Translational Sciences (NCATS), 2010).
The list shows a part of the results. The main result of the screen is listed elsewhere. These columns were measured beside it and carry no call. Most of these compounds were active or inconclusive in the main read-out, so they are no random draw. The note in brackets gives the kind of curve behind each potency; many fits are weak.

Assay: qHTS Assay for Lipid Storage Modulators in Drosophila S3 Cells;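 for cell number change: cells counted by Cell Tracker Red CMTPX staining in the red channel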
Details: BODIPY lipid droplet fluorescence, 18-24 h; for cell number change: measured here: cell count max response, cells fed with added oleic acid
Method in brief: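 Laser-scanning cytometry quantifies lipid droplet accumulation (500–530 nm total intensity; droplet/cell object ratio) in oleic acid-fed (400 uM added) Drosophila S3 cells treated with a concentration series. 20 uM Triacsin C defined 100% inhibition.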

[1] = measured here: lipid fluorescence (Fed channel) AC50, cells fed with added oleic acid
[2] = measured here: cell number channel AC50, cells fed with added oleic acid

| SMILES | AC50 [1] | cell number change [%] | AC50 [2] |
| --- | --- | --- | --- |
| Cc1ccc(N(C(=O)c2ccco2)C(C(=O)NC2CCCC2)c2ccco2)c(C)c1 (configuration not stated) | 6.51 µM [rising, partial curve, poor fit] | – | – |
| COc1ccc(CNC(=O)N2CCN(S(=O)(=O)c3ccccc3)CC2)cc1 | – | 36.2 | 41.1 µM [rising, partial curve, poor fit] |
| Cc1nnnn1/C(=C\c1ccccc1)C(=O)OCC(=O)N1CC2(C)CC1CC(C)(C)C2 (configuration not stated) | 5.17 µM [falling, full curve] | – | – |
| O=C(CCN1C(=O)c2ccccc2C1=O)Nc1ccc(S(=O)(=O)NC2=NCCCCC2)cc1 | – | 0.822 | – |
| O=C(CNC(=O)c1cccc(Cl)c1)NCC(c1cccs1)N1CCOCC1 (configuration not stated) | 0.058 µM [falling, full curve, poor fit] | 11 | – |
| O=C(NC1CC1)c1cc(Cl)ccc1[N+](=O)[O-] | 23.1 µM [falling, partial curve] | -36.4 | 18.4 µM [falling, single point] |
| CCn1c(SCC(=O)Nc2nc(-c3ccc(C)cc3)cs2)nnc1-c1ccccc1O | 2.59 µM [rising, single point] | -35.6 | – |
| C/C(Cn1nnc([N+](=O)[O-])n1)=N\NC(=O)c1cccc(Cl)c1 | 0.0651 µM [rising, full curve, poor fit] | 9.61 | – |
| O=C(Nc1cc2c(cc1C(=O)O)OCCCO2)c1ccc(C(F)(F)F)cc1 | – | -14.1 | – |
| CN1CCN(C2=Cc3ccccc3Sc3cc(F)c(F)cc32)CC1 | 23.1 µM [falling, single point] | -63.1 | 16.4 µM [falling, single point] |
| O=c1c2[nH]cnc2n(-c2cccc(Br)c2)c(=O)n1Cc1ccccc1 | 2.06 µM [rising, partial curve] | 23.7 | – |
| COC(=O)c1ccc(C2/C(=C(\O)c3ccc4c(c3)OCCO4)C(=O)C(=O)N2CCCN2CCOCC2)cc1 (configuration not stated) | 6.51 µM [falling, single point] | -3.54 | – |
| CCOC(=O)c1cnc(SCc2cccc(C)c2)nc1N | 29.1 µM [rising, single point] | 66.2 | – |
| COC(=O)N/N=C/c1cc(Cl)cc(Cl)c1OCc1ccc(F)cc1 | 0.231 µM [rising, full curve, poor fit] | – | – |
| O=S(=O)(c1ccccc1)N1CCCC1c1nc2ccccc2s1 (configuration not stated) | 6.51 µM [rising, single point] | 6.03 | – |
| O=C(N[C@@H](Cc1ccccc1)C(=O)O)c1cccnc1 | 0.00517 µM [falling, full curve] | 0.338 | – |
| CCOc1ccc(NC(=O)c2cccc(-n3cnnn3)c2)cc1 | – | 25.8 | 0.0731 µM [rising, full curve, poor fit] |
| CC1(C)OC(=O)C(=NNc2ccccc2[N+](=O)[O-])C(=O)O1 | 3.26 µM [rising, single point] | 2.92 | 4.61 µM [rising, single point] |
| CC(=O)c1ccc(NC(=O)CN2CCC(C(=O)c3ccc4c(c3)OCCO4)CC2)cc1 | 2.91 µM [rising, single point] | 4.78 | – |
| CC(NC(=O)C(C)N1c2cccc3cccc(c23)S1(=O)=O)c1ccccc1 (configuration not stated) | – | 9.21 | – |
| Cc1ccccc1N1CCN(C2CCCN(C(=O)c3ccc(Cl)s3)C2)CC1 (configuration not stated) | – | -9.63 | – |

| SMILES | AC50 [1] | cell number change [%] | AC50 [2] |
| --- | --- | --- | --- |
| Cn1nccc1C(=O)NC1CCN(Cc2ccccc2)CC1 | 1.84 µM [rising, full curve, poor fit] | 7.74 | – |
| CC(C)CC(c1nnnn1C1CCCCC1)N1CCN(C(=O)c2ccco2)CC1 (configuration not stated) | – | 3.85 | – |
| O=C(/C=C/c1ccnc2ccccc12)c1cccs1 | 13 µM [falling, partial curve] | 7.64 | 3.66 µM [falling, single point] |
| O=C(COC(=O)CNC(=O)c1ccc(Cl)cc1Cl)NC1CCCCCCC1 | 3.66 µM [falling, single point] | -6.93 | – |
| Cc1ccc(-c2n[nH]c(=S)c3ccccc23)cc1 | – | 7.81 | – |
| Cc1cccc(OCC(O)Cn2c(NCc3cccnc3)nc3c2c(=O)[nH]c(=O)n3C)c1 (configuration not stated) | 29.1 µM [rising, single point] | 28.6 | – |
| COc1cc(C(=O)Nc2ccc(S(=O)(=O)N3CCc4ccccc43)cc2)cc(OC)c1OC | 29.1 µM [falling, single point] | -21.8 | – |
| CCCCN=C(C)c1c(O)c2ccccc2oc1=O | – | -0.0701 | – |
| CCc1cc2c(=O)n(Cc3ccco3)c(SCC(=O)N3CCCc4ccccc43)nc2s1 | 7.31 µM [falling, partial curve] | -26.8 | – |
| CCCCNC(=O)c1cc2c(=O)n3cccc(C)c3nc2n1C | 2.31 µM [rising, partial curve] | – | 6.51 µM [rising, single point] |
| Cc1ccc(CC(=O)Nc2ccc(C(=O)N3CCOCC3)cc2)cc1 | 9.2 µM [rising, partial curve, poor fit] | 6.94 | – |
| Cc1cccc(/C=C/C(=O)c2ccc([N+](=O)[O-])o2)c1 | – | -11.4 | 2.31 µM [falling, partial curve] |
| O=C(NC1CCCCC1)C(c1ccc(F)cc1)N(C(=O)c1cccs1)c1ccc2c(c1)OCO2 (configuration not stated) | 29.1 µM [rising, single point] | 36.7 | 9.2 µM [rising, single point] |
| O=C(Nc1ccc(N2CCOCC2)cc1)c1cccc2c(Br)cccc12 | – | -5.56 | – |
| O=C(NCCCN1CCOCC1)c1onc(CSc2nc3ccccc3[nH]2)c1C(=O)NCCCN1CCOCC1 | – | 9.88 | – |
| COc1ccccc1OCCn1cc(/C=C(\C#N)C(=O)NCc2cccs2)c2ccccc21 | 0.13 µM [falling, single point] | 4.6 | – |
| COc1ccccc1NS(=O)(=O)c1ccc(C)c(C(=O)NCC2(N(C)C)CCCCC2)c1 | 3.66 µM [rising, single point] | 5.31 | – |
| COc1cccc(-c2cc3nc(-c4ccccc4)cc(N4CCCC(O)C4)n3n2)c1 (configuration not stated) | 16.4 µM [falling, partial curve] | -38.8 | 16.4 µM [falling, single point] |
| COc1cccc(-c2csc3nnc(SCC(=O)c4ccc(NC(C)=O)cc4)n23)c1 | 1.03 µM [rising, full curve] | -9.61 | – |
| Cc1ccc(C(=O)NCCc2nnc3ccc(SCC(=O)Nc4ccccc4C)nn23)cc1 | 18.4 µM [rising, partial curve, poor fit] | 11.4 | – |
| CC1CCN(C(=S)NC(=O)C2CCCCC2)CC1 | – | 68.4 | – |

Whole records as entered above. Values in the order: AC50 [1]	cell number change [%]	AC50 [2]
`CCCCN=C(C)c1c(O)c2ccccc2oc1=O` is listed as –	-0.0701	–
`CC(C)CC(c1nnnn1C1CCCCC1)N1CCN(C(=O)c2ccco2)CC1` (configuration not stated) is listed as –	3.85	–
`CCc1cc2c(=O)n(Cc3ccco3)c(SCC(=O)N3CCCc4ccccc43)nc2s1` is listed as 7.31 µM [falling, partial curve]	-26.8	–
`O=C(NCCCN1CCOCC1)c1onc(CSc2nc3ccccc3[nH]2)c1C(=O)NCCCN1CCOCC1` is listed as –	9.88	–

The list goes on.

| SMILES | AC50 [1] | cell number change [%] | AC50 [2] |
| --- | --- | --- | --- |
| CC(C)(C)CC(C)(C)NC(=S)N1CCN(Cc2ccc3c(c2)OCO3)CC1 | – | -29.9 | 3.66 µM [falling, full curve, poor fit] |
| CCOC(=O)C1=C(N)OC2=C(C(=O)CCC2)C1c1ccccc1OC (configuration not stated) | 0.164 µM [falling, full curve, poor fit] | -6.95 | – |
| Cc1ccc(S(=O)(=O)N2CCN(C(=O)N3CCOCC3)CC2)cc1C | 29.1 µM [rising, single point] | 13.5 | 6.51 µM [rising, single point] |
| O=c1cc[nH]c2ccc([N+](=O)[O-])cc12 | – | -18.8 | – |
| Cc1noc(C)c1COc1ccc(C(=O)OCc2nnc(-c3ccc(Cl)cc3)o2)cc1 | – | -8.18 | – |
| CC(=O)Nc1ccc(C(=O)OCc2ccccc2Br)cc1 | – | 12.5 | – |
| COc1ccc(S(=O)(=O)NNC(=O)c2csc(-n3nc(C)cc3C(F)(F)F)n2)cc1OC | 29.1 µM [falling, single point] | -45.4 | 29.1 µM [falling, single point] |
| Cc1nc(NCCc2ccccc2)c2oc3ccccc3c2n1 | 9.2 µM [rising, single point] | -24.6 | – |
| Cc1cccc(NC(=O)N(C)Cc2cccs2)c1 | 0.82 µM [falling, single point] | 48.4 | 16.4 µM [rising, single point] |
| Cc1ccc(C(=O)CSc2nc(-c3ccccc3)ccc2C#N)cc1 | 1.64 µM [rising, partial curve] | – | 1.64 µM [rising, partial curve] |
| CCOc1ccc(N(CC(=O)NCC2CCCO2)S(=O)(=O)c2ccc(Cl)cc2)cc1 (configuration not stated) | – | -0.961 | – |
| Cn1c(SC2CCCCC2=O)nnc1-c1ccncc1 (configuration not stated) | 29.1 µM [rising, single point] | 122 | – |
| COC(=O)C1C(=O)NCC1c1ccccc1 (configuration not stated) | 23.1 µM [falling, partial curve] | -21 | 0.411 µM [falling, full curve, poor fit] |
| FC(F)Oc1ccc(NC(=S)NCc2ccccc2)cc1Cl | 0.731 µM [rising, single point] | -26.3 | – |
| N/C(=N\OC(=O)c1ccc2ccccc2c1)c1cccc([N+](=O)[O-])c1 | 14.6 µM [rising, single point] | 4.37 | – |
| COc1ccc(C(=O)CC(=O)C(=O)Nc2cc(C)ccc2C)cc1 | 0.231 µM [rising, full curve, poor fit] | 21.3 | – |
| COc1ccc(CNC(=O)C(C)NCc2ccc(S(N)(=O)=O)cc2)cc1 (configuration not stated) | – | 20.4 | – |
| Nc1ccc(C(=O)c2cccs2)cc1 | 8.2 µM [rising, partial curve] | 5.54 | – |
| CSc1ccccc1NC(=O)Cc1ccccc1[N+](=O)[O-] | 32.6 µM [falling, single point] | -19.1 | – |
| Cc1onc(-c2c(Cl)cccc2Cl)c1NC(=O)NNc1ccccn1 | 18.4 µM [falling, single point] | -55.4 | 29.1 µM [falling, single point] |
